Source: the supplement of paper PMC8728848
This is one part of the list.

Experiments:
Test in all cases: glycan array binding signal (z-score within array); higher = stronger binding
Conditions in all cases: glycan notation: IUPAC condensed, linker removed
[1] = biological target: Neu5Ac(a2-3)Gal(b1-4)GlcNAc(b1-3)[Neu5Ac(a2-3)Gal(b1-4)GlcNAc(b1-6)]GalNAc
Outline: (§1)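 Glycan array binding is given as a within-array Z-score, which can be read as non-binding when negative. The arrays, 3228 of them, came from the Consortium for Functional Glycomics database and were retained only where the protein sequence was available. Z-scores were averaged across arrays of the same protein sequence at different concentrations or buffers and across linkers.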

[2] = biological target: Neu5Ac(a2-3)Gal(b1-4)GlcNAc(b1-6)GalNAc
Outline: as §1

[3] = biological target: Neu5Ac(a2-3)Gal(b1-4)GlcNAc(b1-6)[Gal(b1-3)]GalNAc
Outline: as §1

[4] = biological target: Neu5Ac(a2-3)Gal(b1-4)GlcNAc(b1-6)[Neu5Ac(a2-3)Gal(b1-3)]GalNAc
Outline: as §1

[5] = biological target: Neu5Ac(a2-3)Gal(b1-4)GlcNAc6S
Outline: as §1

[6] = biological target: Neu5Ac(a2-3)Gal(b1-4)[Fuc(a1-3)]GlcNAc
Outline: as §1

[7] = biological target: Neu5Ac(a2-3)Gal(b1-4)[Fuc(a1-3)]GlcNAc(b1-2)Man
Outline: as §1

[8] = biological target: Neu5Ac(a2-3)Gal(b1-4)[Fuc(a1-3)]GlcNAc(b1-3)Gal
Outline: as §1

[9] = biological target: Neu5Ac(a2-3)Gal(b1-4)[Fuc(a1-3)]GlcNAc(b1-3)Gal(b1-4)GlcNAc
Outline: as §1

[10] = biological target: Neu5Ac(a2-3)Gal(b1-4)[Fuc(a1-3)]GlcNAc(b1-3)Gal(b1-4)[Fuc(a1-3)]GlcNAc(b1-3)Gal(b1-4)[Fuc(a1-3)]GlcNAc
Outline: as §1

[11] = biological target: Neu5Ac(a2-3)Gal(b1-4)[Fuc(a1-3)]GlcNAc(b1-3)GalNAc
Outline: as §1

[12] = biological target: Neu5Ac(a2-3)Gal(b1-4)[Fuc(a1-3)]GlcNAc(b1-6)[Gal(b1-3)]GalNAc
Outline: as §1

[13] = biological target: Neu5Ac(a2-3)Gal(b1-4)[Fuc(a1-3)]GlcNAc(b1-6)[Neu5Ac(a2-3)Gal(b1-3)]GalNAc
Outline: as §1

[14] = biological target: Neu5Ac(a2-3)Gal(b1-4)[Fuc(a1-3)]GlcNAc6S
Outline: as §1

[15] = biological target: Neu5Ac(a2-3)Gal6S(b1-4)GlcNAc
Outline: as §1

[16] = biological target: Neu5Ac(a2-3)Gal6S(b1-4)[Fuc(a1-3)]GlcNAc
Outline: as §1

Neu5Ac(a2-3)GalNAc = biological target: Neu5Ac(a2-3)GalNAc
Outline: as §1

[17] = biological target: Neu5Ac(a2-3)GalNAc(b1-4)GlcNAc
Outline: as §1

[18] = biological target: Neu5Ac(a2-3)[GalNAc(b1-4)]Gal(b1-4)Glc
Outline: as §1

[19] = biological target: Neu5Ac(a2-3)[GalNAc(b1-4)]Gal(b1-4)GlcNAc
Outline: as §1

[20] = biological target: Neu5Ac(a2-3)[GalNAc(b1-4)]Gal(b1-4)GlcNAc(b1-3)GalNAc
Outline: as §1

[21] = biological target: Neu5Ac(a2-3)[Neu5Ac(a2-6)]GalNAc
Outline: as §1

Neu5Ac(a2-6)Gal = biological target: Neu5Ac(a2-6)Gal
Outline: as §1

[22] = biological target: Neu5Ac(a2-6)Gal(b1-3)GlcNAc(b1-3)[Gal(b1-4)GlcNAc(b1-6)]Gal(b1-4)Glc
Outline: as §1

Neu5Ac(a2-6)Gal(b1-4)Glc = biological target: Neu5Ac(a2-6)Gal(b1-4)Glc
Outline: as §1

[23] = biological target: Neu5Ac(a2-6)Gal(b1-4)GlcNAc
Outline: as §1

[24] = biological target: Neu5Ac(a2-6)Gal(b1-4)GlcNAc(b1-2)Man
Outline: as §1

[25] = biological target: Neu5Ac(a2-6)Gal(b1-4)GlcNAc(b1-2)Man(a1-3)Man(b1-4)GlcNAc(b1-4)GlcNAc
Outline: as §1

[26] = biological target: Neu5Ac(a2-6)Gal(b1-4)GlcNAc(b1-2)Man(a1-3)[Gal(b1-4)GlcNAc(b1-2)Man(a1-6)]Man(b1-4)GlcNAc(b1-4)GlcNAc
Outline: as §1

[27] = biological target: Neu5Ac(a2-6)Gal(b1-4)GlcNAc(b1-2)Man(a1-3)[GlcNAc(b1-2)Man(a1-6)]Man(b1-4)GlcNAc(b1-4)GlcNAc
Outline: as §1

[28] = biological target: Neu5Ac(a2-6)Gal(b1-4)GlcNAc(b1-2)Man(a1-3)[GlcNAc(b1-4)][Neu5Ac(a2-6)Gal(b1-4)GlcNAc(b1-2)Man(a1-6)]Man(b1-4)GlcNAc(b1-4)GlcNAc
Outline: as §1

[29] = biological target: Neu5Ac(a2-6)Gal(b1-4)GlcNAc(b1-2)Man(a1-3)[Man(a1-6)]Man(b1-4)GlcNAc(b1-4)GlcNAc
Outline: as §1

[30] = biological target: Neu5Ac(a2-6)Gal(b1-4)GlcNAc(b1-2)Man(a1-3)[Neu5Ac(a2-3)Gal(b1-4)GlcNAc(b1-2)Man(a1-6)]Man(b1-4)GlcNAc(b1-4)GlcNAc
Outline: as §1

[31] = biological target: Neu5Ac(a2-6)Gal(b1-4)GlcNAc(b1-2)Man(a1-3)[Neu5Ac(a2-6)Gal(b1-4)GlcNAc(b1-2)Man(a1-6)]Man(b1-4)GlcNAc(b1-4)GlcNAc
Outline: as §1

[32] = biological target: Neu5Ac(a2-6)Gal(b1-4)GlcNAc(b1-2)Man(a1-3)[Neu5Ac(a2-6)Gal(b1-4)GlcNAc(b1-2)Man(a1-6)]Man(b1-4)GlcNAc(b1-4)[Fuc(a1-6)]GlcNAc
Outline: as §1

[33] = biological target: Neu5Ac(a2-6)Gal(b1-4)GlcNAc(b1-2)Man(a1-6)Man(b1-4)GlcNAc(b1-4)GlcNAc
Outline: as §1

[34] = biological target: Neu5Ac(a2-6)Gal(b1-4)GlcNAc(b1-2)Man(a1-6)[Gal(b1-4)GlcNAc(b1-2)Man(a1-3)]Man(b1-4)GlcNAc(b1-4)GlcNAc
Outline: as §1

[35] = biological target: Neu5Ac(a2-6)Gal(b1-4)GlcNAc(b1-2)Man(a1-6)[GlcNAc(b1-2)Man(a1-3)]Man(b1-4)GlcNAc(b1-4)GlcNAc
Outline: as §1

[36] = biological target: Neu5Ac(a2-6)Gal(b1-4)GlcNAc(b1-2)Man(a1-6)[Man(a1-3)]Man(b1-4)GlcNAc(b1-4)GlcNAc
Outline: as §1

[37] = biological target: Neu5Ac(a2-6)Gal(b1-4)GlcNAc(b1-2)[Neu5Ac(a2-6)Gal(b1-4)GlcNAc(b1-4)]Man(a1-3)[GlcNAc(b1-4)][Neu5Ac(a2-6)Gal(b1-4)GlcNAc(b1-2)[Neu5Ac(a2-6)Gal(b1-4)GlcNAc(b1-6)]Man(a1-6)]Man(b1-4)GlcNAc(b1-4)GlcNAc
Outline: as §1

[38] = biological target: Neu5Ac(a2-6)Gal(b1-4)GlcNAc(b1-2)[Neu5Ac(a2-6)Gal(b1-4)GlcNAc(b1-4)]Man(a1-3)[GlcNAc(b1-4)][Neu5Ac(a2-6)Gal(b1-4)GlcNAc(b1-4)Man(a1-6)]Man(b1-4)GlcNAc(b1-4)GlcNAc
Outline: as §1

[39] = biological target: Neu5Ac(a2-6)Gal(b1-4)GlcNAc(b1-2)[Neu5Ac(a2-6)Gal(b1-4)GlcNAc(b1-6)]Man(a1-6)[Neu5Ac(a2-6)Gal(b1-4)GlcNAc(b1-2)Man(a1-3)][GlcNAc(b1-4)]Man(b1-4)GlcNAc(b1-4)GlcNAc
Outline: as §1

[40] = biological target: Neu5Ac(a2-6)Gal(b1-4)GlcNAc(b1-3)Gal(b1-3)GlcNAc
Outline: as §1

[41] = biological target: Neu5Ac(a2-6)Gal(b1-4)GlcNAc(b1-3)Gal(b1-4)GlcNAc
Outline: as §1

[42] = biological target: Neu5Ac(a2-6)Gal(b1-4)GlcNAc(b1-3)Gal(b1-4)GlcNAc(b1-2)Man(a1-3)[Neu5Ac(a2-6)Gal(b1-4)GlcNAc(b1-3)Gal(b1-4)GlcNAc(b1-2)Man(a1-6)]GalNAc
Outline: as §1

[43] = biological target: Neu5Ac(a2-6)Gal(b1-4)GlcNAc(b1-3)Gal(b1-4)GlcNAc(b1-3)Gal(b1-4)GlcNAc
Outline: as §1

B1: LlpA (Arthrobacter sp) (protein)
chain: MGSSHHHHHHSSGLVPRGSHMTLHPETALRPGAAATSPNSRYRLLYQTDGNLVLYGPDGPLWDSGTNGHGAGACIMQADGNLVLYGPNDEYVWDTETDNNPGSRLVIQDDGNAVIYRPDGSPLWATETCQPPGSADSHVLQSGSTLTPTHGIRSANGLYGLLYQTDGNLVFYGPDGPLWDSGTNGRGAGACIMQPDGNLVLYGPHDEYVWDTETDNNPGSRLVIQDDGNAVIYRPDGNPTWVTGTH
- glycan array binding signal (z-score) [1]: 0.868
- glycan array binding signal (z-score) [2]: -0.779
- glycan array binding signal (z-score) [3]: -0.102
- glycan array binding signal (z-score) [4]: -0.847
- glycan array binding signal (z-score) [5]: -0.156
- glycan array binding signal (z-score) [6]: -0.619
- glycan array binding signal (z-score) [7]: -0.343
- glycan array binding signal (z-score) [8]: -0.27
- glycan array binding signal (z-score) [9]: -0.166
- glycan array binding signal (z-score) [10]: -0.008
- glycan array binding signal (z-score) [11]: 1.8
- glycan array binding signal (z-score) [12]: 1.65
- glycan array binding signal (z-score) [13]: -0.534
- glycan array binding signal (z-score) [14]: 0.447
- glycan array binding signal (z-score) [15]: -1.21
- glycan array binding signal (z-score) [16]: -0.518
- glycan array binding signal (z-score) (Neu5Ac(a2-3)GalNAc): 0.659
- glycan array binding signal (z-score) [17]: -0.416
- glycan array binding signal (z-score) [18]: 0.446
- glycan array binding signal (z-score) [19]: -0.707
- glycan array binding signal (z-score) [20]: 0.75
- glycan array binding signal (z-score) [21]: -0.513
- glycan array binding signal (z-score) (Neu5Ac(a2-6)Gal): 0.531
- glycan array binding signal (z-score) [22]: -0.829
- glycan array binding signal (z-score) (Neu5Ac(a2-6)Gal(b1-4)Glc): -0.132
- glycan array binding signal (z-score) [23]: -0.983
- glycan array binding signal (z-score) [24]: -0.123
- glycan array binding signal (z-score) [25]: 0.796
- glycan array binding signal (z-score) [26]: -0.376
- glycan array binding signal (z-score) [27]: 0.56
- glycan array binding signal (z-score) [28]: 0.531
- glycan array binding signal (z-score) [29]: 1.21
- glycan array binding signal (z-score) [30]: -0.207
- glycan array binding signal (z-score) [31]: 0.224
- glycan array binding signal (z-score) [32]: 2.31
- glycan array binding signal (z-score) [33]: 0.4
- glycan array binding signal (z-score) [34]: -0.868
- glycan array binding signal (z-score) [35]: 0.209
- glycan array binding signal (z-score) [36]: 0.502
- glycan array binding signal (z-score) [37]: -0.712
- glycan array binding signal (z-score) [38]: -0.394
- glycan array binding signal (z-score) [39]: -0.017
- glycan array binding signal (z-score) [40]: -0.33
- glycan array binding signal (z-score) [41]: -1.17
- glycan array binding signal (z-score) [42]: -0.464
- glycan array binding signal (z-score) [43]: 0.262
